In paper PMC11211886 (Frontiers in Pharmacology, 2024):

Assay: Caco-2 bidirectional transport permeability
Assay type: in vitro ADME
Conditions: human
Description: The passage number of cells used in this study was 39. Non-specific binding to the device surfaces and the aqueous solubility of test compounds were tested before the transport experiment. […] The integrity of the monolayer was estimated by measuring transepithelial electrical resistance (TEER). Only the monolayers with TEER over 150 Ω were used for the studies. […] The bidirectional transport studies were initiated by adding amdizalisib to either the apical (A) or basolateral (B) side of the Transwell® Insert.

- Papp A→B at 60 min, 10 µM: < 0.431 ×10⁻⁶ cm/s
- Papp B→A at 60 min, 10 µM: 0.32 ×10⁻⁶ cm/s
- efflux ratio at 60 min, 10 µM: > 0.742
Structure (SMILES): CC(C)NCC(O)COc1ccc(CC(N)=O)cc1 (stereo not drawn) [Atenolol, reference compound]
